The source of these data is publication PMC3632089.

By UniProt entry, the sequences of proteins in these tests, tags left out.
UniProt Q9Y3S1: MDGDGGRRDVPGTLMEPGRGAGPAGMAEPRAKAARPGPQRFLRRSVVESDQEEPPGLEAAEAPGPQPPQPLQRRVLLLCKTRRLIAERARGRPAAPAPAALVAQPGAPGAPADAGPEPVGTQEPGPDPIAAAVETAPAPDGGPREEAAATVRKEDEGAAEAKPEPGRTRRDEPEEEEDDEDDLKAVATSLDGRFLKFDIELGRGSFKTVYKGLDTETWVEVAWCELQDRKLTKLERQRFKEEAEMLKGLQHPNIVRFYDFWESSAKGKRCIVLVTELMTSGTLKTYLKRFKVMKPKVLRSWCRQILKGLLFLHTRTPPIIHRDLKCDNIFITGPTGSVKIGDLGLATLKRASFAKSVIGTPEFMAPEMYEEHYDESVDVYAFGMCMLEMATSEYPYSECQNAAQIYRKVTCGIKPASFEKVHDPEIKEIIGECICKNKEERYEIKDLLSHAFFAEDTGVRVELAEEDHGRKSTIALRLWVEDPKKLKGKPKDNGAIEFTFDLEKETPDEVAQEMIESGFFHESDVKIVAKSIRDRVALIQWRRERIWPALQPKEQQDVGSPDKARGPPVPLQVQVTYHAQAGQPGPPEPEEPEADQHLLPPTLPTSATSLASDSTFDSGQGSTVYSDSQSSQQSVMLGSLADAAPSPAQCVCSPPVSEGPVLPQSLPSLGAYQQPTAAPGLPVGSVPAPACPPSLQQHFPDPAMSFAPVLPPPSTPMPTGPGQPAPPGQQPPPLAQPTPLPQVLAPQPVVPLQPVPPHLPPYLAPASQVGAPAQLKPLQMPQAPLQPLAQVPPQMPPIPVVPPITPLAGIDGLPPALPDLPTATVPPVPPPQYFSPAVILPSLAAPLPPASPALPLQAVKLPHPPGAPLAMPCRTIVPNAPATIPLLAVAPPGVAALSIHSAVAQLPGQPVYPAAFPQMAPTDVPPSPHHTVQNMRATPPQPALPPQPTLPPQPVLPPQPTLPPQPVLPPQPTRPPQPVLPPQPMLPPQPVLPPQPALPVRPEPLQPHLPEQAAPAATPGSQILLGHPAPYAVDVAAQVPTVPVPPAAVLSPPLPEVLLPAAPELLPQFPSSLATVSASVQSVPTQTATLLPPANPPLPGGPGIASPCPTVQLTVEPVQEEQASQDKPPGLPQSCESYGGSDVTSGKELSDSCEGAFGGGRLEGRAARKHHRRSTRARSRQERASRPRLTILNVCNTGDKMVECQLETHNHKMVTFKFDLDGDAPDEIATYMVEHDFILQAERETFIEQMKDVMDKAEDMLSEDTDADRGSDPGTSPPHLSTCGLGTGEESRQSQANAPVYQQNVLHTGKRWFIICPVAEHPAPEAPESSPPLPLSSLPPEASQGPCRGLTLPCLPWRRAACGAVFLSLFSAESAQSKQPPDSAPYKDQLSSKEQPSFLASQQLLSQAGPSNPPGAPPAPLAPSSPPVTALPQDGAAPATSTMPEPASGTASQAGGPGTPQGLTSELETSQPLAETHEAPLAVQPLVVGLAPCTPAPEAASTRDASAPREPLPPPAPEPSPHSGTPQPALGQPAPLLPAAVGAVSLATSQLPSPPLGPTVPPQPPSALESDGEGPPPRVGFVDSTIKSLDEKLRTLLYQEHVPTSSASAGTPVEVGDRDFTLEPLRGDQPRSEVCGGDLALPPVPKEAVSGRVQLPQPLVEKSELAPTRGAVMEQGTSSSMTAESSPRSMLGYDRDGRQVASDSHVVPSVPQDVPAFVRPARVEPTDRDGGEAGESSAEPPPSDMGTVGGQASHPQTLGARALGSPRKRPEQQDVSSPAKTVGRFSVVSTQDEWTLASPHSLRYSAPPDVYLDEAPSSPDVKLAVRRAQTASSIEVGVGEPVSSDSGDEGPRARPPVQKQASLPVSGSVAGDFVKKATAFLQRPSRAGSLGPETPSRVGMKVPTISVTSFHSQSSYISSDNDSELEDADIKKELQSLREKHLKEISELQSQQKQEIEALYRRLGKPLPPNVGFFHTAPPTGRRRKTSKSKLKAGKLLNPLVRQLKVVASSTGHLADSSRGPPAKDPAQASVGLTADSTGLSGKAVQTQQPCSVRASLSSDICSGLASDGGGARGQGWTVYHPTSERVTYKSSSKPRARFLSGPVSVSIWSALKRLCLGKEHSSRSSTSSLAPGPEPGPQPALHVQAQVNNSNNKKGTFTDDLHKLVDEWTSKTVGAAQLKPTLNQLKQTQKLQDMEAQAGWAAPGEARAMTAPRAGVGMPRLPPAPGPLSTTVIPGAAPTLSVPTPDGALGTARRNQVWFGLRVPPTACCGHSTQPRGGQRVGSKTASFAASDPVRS
UniProt Q9H4A3: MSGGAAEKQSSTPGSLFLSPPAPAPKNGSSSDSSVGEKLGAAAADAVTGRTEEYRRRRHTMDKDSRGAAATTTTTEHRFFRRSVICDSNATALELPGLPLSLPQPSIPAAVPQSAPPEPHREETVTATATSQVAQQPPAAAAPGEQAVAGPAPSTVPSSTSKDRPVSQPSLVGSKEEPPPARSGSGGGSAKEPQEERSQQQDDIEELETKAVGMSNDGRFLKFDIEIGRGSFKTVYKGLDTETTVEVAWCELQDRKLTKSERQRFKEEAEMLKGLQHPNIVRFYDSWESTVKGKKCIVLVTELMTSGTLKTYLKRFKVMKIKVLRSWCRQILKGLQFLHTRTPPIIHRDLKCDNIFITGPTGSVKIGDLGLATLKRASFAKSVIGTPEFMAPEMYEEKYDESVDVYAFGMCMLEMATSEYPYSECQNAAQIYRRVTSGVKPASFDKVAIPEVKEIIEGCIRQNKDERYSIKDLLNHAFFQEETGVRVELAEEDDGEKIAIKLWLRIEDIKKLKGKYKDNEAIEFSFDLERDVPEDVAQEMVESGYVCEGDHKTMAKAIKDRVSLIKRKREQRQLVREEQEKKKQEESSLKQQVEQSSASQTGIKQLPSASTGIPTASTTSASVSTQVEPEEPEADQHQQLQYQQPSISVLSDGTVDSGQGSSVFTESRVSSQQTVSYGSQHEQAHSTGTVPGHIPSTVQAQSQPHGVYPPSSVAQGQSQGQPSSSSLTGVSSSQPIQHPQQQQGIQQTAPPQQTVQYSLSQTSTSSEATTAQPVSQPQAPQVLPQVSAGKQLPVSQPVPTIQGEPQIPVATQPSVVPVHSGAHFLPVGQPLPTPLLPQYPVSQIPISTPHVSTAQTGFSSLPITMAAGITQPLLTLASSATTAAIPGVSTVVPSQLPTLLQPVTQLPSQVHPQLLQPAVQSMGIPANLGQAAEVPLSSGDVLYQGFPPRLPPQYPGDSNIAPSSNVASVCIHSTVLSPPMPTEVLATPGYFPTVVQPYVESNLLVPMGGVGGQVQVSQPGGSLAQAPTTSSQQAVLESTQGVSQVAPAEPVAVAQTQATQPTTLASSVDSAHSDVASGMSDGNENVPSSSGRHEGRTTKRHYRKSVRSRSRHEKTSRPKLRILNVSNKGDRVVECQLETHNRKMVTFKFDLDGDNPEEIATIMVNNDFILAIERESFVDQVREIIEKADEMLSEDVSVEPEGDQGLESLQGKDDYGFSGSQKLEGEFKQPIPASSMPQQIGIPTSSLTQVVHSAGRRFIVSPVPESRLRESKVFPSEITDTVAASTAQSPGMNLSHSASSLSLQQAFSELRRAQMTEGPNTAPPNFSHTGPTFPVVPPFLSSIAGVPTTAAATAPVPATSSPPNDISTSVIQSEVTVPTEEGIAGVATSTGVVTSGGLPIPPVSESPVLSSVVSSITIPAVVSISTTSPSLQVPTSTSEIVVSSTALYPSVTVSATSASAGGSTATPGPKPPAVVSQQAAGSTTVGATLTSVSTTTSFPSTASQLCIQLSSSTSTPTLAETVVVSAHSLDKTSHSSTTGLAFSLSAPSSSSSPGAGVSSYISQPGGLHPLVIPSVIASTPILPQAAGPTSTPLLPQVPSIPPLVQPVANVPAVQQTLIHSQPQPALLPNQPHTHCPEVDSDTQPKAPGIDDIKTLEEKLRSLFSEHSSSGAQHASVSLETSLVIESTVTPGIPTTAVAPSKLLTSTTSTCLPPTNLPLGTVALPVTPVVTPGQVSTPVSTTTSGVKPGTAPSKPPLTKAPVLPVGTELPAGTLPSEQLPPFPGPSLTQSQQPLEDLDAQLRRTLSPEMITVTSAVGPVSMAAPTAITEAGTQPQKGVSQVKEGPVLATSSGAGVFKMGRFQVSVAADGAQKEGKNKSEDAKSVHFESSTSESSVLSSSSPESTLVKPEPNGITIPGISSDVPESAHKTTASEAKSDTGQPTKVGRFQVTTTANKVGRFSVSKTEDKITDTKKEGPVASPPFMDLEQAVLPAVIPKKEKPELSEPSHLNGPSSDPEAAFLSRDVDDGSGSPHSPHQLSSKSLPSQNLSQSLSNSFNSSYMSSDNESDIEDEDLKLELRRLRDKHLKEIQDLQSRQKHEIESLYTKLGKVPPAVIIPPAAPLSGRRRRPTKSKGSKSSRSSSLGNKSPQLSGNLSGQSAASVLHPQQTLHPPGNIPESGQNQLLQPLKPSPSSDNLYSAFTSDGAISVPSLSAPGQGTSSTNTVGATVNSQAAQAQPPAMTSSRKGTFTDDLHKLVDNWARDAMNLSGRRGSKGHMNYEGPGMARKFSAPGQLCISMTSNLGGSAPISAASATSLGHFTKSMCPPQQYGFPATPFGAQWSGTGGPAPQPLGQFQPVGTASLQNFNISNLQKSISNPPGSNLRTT
UniProt Q9BYP7: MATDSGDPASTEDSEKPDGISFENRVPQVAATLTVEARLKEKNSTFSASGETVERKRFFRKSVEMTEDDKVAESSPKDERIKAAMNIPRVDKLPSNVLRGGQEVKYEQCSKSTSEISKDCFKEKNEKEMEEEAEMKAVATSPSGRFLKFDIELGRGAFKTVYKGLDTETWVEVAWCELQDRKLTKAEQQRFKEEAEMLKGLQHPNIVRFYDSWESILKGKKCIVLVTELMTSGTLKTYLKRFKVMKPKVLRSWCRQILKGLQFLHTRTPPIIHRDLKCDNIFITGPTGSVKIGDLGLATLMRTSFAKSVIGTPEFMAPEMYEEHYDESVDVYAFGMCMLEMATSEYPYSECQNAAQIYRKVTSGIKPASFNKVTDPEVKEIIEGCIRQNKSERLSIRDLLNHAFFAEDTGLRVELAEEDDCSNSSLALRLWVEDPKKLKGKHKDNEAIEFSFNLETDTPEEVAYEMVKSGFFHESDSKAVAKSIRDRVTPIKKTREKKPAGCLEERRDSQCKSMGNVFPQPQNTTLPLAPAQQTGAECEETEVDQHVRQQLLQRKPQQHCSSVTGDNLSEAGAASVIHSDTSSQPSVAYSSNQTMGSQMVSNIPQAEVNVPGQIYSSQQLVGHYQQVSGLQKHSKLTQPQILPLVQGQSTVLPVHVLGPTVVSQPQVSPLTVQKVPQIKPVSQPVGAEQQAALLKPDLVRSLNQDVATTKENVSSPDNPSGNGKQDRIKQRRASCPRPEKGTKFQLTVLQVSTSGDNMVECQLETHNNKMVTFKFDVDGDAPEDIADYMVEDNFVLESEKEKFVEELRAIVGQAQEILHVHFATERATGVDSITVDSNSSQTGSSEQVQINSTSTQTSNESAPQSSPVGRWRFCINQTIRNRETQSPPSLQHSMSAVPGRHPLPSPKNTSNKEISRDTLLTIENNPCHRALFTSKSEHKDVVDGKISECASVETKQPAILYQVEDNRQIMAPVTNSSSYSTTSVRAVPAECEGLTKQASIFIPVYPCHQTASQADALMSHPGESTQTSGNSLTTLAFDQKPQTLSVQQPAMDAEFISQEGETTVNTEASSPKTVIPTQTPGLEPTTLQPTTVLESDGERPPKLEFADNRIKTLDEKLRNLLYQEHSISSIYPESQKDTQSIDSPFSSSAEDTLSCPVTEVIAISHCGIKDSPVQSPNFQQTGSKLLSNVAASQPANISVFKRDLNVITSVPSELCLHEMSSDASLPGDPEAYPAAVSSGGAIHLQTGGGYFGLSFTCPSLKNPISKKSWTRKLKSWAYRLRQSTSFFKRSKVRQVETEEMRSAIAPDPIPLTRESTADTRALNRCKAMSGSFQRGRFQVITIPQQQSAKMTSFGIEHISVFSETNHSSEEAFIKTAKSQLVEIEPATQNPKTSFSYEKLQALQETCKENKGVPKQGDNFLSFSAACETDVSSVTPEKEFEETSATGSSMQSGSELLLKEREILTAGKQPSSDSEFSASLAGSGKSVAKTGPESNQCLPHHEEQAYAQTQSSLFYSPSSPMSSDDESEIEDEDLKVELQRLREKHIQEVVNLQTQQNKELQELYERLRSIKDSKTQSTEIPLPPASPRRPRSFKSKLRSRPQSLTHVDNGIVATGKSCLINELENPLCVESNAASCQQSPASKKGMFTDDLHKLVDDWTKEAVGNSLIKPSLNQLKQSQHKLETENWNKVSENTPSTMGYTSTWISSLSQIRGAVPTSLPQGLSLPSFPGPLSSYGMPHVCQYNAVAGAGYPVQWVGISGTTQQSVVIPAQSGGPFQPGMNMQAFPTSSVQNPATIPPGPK

Changes are numbered by the printed parent chain. Results are given in words; binding and its absence hold for the method and conditions named. In cells and extracts the contact can be indirect. Here binding means that the protein was enriched with, or labelled near, the bait; the list need not be complete. For part of these data: No binding means not detected with the bait. Where a sequence is shown, tags or fusion partners need not be part of it.

Holding throughout (assay): affinity purification with mass spectrometry; anti-FLAG agarose IP of FLAG-KLHL3 from 5 mg HEK-293 lysate; washed 3x with lysis buffer containing 0.5 M NaCl and 2x with Buffer A; SDS-PAGE, Colloidal Blue staining, bands analysed by LC-MS/MS (Orbitrap, Mascot)
The target in assay [1] is T1, FLAG-tagged wild-type KLHL3 (Kelch-like 3) (human) (UniProt Q9UH77).
T1 sequence: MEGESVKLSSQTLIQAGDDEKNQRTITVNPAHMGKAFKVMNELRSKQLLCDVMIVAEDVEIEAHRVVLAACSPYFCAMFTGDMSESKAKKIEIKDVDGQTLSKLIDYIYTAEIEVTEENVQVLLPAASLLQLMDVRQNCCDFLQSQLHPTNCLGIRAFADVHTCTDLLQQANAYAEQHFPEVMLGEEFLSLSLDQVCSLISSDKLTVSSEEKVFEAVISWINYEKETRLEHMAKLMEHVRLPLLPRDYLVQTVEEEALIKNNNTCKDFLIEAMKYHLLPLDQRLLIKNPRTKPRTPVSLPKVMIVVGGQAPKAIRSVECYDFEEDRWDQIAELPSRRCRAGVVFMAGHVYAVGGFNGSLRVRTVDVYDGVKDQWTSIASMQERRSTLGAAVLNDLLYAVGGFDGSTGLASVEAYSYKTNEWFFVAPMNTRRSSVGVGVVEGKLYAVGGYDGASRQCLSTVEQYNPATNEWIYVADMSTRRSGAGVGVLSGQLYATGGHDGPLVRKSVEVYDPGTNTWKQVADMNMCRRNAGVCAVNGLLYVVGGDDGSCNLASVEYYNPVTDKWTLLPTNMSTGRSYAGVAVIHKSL

Assay [2] has as its target T2, FLAG-tagged KLHL3[S432N] (human) (UniProt Q9UH77).
T2 sequence: T1 sequence with S432N

In assay [3] the target is T3, FLAG-tagged KLHL3[R528H] (human) (UniProt Q9UH77).
T3 sequence: T1 sequence with R528H

In the case of “WNK2, endogenous (from UniProt Q9Y3S1 1-2297)”, the binding entry is “binds” in assay [1], “no binding” in assay [2] and “no binding” in assay [3].
In the case of “WNK1 (with no lysine kinase 1), endogenous (from UniProt Q9H4A3 1-2382)”, the results for the binding entry in assay [1], in assay [2] and in assay [3] were “binds”, “no binding” and “binds”, respectively.
In the case of “WNK3, endogenous (from UniProt Q9BYP7 1-1800)”, the results for the binding entry in assay [1], in assay [2] and in assay [3] were “binds”, “no binding” and “no binding”, respectively.
